Test results: the supplement of paper PMC10849652
Some of the results follow. Residues, ends and D or L forms follow the SMILES beside them. *: point of attachment. Cbz = O=C(OCc1ccccc1)*

Chains of the proteins cited; added tags and fusions are not shown. Lines headed by an entry give the natural chain unless they say otherwise; changes in a name come on top.
UniProt P50452: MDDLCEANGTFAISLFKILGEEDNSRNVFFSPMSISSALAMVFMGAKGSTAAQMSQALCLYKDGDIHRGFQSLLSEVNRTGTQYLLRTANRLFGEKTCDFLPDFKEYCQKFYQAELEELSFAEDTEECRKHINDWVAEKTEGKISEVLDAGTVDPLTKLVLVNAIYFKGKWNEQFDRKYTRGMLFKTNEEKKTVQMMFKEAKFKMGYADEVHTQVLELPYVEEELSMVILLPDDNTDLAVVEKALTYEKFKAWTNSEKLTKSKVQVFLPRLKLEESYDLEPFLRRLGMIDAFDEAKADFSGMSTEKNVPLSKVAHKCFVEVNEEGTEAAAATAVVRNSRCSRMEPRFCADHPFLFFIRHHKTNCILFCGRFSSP
UniProt Q9UBV2: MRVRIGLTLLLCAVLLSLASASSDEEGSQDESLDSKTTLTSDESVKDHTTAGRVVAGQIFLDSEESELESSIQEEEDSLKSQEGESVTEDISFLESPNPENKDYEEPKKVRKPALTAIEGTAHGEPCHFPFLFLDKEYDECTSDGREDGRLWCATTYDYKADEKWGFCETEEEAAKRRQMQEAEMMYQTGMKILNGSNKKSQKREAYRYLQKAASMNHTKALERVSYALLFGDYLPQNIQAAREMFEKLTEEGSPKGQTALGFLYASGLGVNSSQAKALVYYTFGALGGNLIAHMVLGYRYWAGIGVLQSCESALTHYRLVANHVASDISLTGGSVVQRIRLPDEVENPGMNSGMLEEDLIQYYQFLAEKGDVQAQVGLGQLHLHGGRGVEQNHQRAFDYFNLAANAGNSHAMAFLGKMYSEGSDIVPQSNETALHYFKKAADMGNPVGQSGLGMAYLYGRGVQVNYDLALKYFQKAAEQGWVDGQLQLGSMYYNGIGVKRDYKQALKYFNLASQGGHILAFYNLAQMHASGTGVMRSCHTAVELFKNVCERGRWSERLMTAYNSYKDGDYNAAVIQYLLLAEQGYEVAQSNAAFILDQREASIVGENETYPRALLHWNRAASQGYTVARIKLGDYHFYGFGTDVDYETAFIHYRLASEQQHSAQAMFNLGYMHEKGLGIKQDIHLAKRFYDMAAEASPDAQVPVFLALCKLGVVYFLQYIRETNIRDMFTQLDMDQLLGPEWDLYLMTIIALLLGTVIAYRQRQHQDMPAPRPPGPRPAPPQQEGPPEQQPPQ
UniProt O60613, whole entry, looked up: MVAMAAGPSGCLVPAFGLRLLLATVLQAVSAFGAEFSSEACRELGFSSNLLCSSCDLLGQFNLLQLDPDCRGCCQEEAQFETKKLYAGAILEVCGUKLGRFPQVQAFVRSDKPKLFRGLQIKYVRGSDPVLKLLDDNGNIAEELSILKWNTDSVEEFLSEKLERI
UniProt Q8N6T7, whole entry, looked up: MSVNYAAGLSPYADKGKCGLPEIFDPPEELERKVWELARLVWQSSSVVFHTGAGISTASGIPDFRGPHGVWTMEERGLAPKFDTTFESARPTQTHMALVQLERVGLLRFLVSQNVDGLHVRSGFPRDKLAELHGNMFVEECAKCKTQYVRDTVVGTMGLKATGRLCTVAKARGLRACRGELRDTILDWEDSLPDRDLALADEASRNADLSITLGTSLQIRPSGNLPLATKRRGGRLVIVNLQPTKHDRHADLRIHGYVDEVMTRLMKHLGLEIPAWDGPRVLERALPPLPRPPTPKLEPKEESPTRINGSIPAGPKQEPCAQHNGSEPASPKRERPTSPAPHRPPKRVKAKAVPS
UniProt Q15427: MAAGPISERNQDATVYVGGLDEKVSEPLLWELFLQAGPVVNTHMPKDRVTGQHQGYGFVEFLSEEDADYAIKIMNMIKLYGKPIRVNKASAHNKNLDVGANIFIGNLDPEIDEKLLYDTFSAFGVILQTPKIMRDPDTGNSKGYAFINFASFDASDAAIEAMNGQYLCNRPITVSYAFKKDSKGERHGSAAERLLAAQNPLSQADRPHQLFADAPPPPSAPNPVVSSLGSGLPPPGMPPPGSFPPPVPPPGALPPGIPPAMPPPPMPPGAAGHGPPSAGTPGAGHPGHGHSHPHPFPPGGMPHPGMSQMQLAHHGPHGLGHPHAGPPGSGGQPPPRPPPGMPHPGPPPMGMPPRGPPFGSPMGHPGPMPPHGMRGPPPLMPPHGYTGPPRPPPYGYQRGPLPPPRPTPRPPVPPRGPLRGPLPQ
UniProt Q99611, whole entry, looked up: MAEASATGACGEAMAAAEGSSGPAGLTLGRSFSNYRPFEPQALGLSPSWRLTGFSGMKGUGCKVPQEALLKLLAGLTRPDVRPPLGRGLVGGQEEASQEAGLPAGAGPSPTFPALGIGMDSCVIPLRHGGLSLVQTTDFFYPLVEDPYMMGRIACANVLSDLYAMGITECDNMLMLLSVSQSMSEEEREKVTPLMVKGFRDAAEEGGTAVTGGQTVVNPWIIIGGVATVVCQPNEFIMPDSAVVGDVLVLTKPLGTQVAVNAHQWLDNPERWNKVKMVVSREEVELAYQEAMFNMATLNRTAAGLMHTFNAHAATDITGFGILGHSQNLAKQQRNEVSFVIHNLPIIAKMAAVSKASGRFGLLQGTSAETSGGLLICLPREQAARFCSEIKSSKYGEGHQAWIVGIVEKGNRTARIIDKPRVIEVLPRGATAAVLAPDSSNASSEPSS
UniProt Q9C0C4, whole entry, looked up: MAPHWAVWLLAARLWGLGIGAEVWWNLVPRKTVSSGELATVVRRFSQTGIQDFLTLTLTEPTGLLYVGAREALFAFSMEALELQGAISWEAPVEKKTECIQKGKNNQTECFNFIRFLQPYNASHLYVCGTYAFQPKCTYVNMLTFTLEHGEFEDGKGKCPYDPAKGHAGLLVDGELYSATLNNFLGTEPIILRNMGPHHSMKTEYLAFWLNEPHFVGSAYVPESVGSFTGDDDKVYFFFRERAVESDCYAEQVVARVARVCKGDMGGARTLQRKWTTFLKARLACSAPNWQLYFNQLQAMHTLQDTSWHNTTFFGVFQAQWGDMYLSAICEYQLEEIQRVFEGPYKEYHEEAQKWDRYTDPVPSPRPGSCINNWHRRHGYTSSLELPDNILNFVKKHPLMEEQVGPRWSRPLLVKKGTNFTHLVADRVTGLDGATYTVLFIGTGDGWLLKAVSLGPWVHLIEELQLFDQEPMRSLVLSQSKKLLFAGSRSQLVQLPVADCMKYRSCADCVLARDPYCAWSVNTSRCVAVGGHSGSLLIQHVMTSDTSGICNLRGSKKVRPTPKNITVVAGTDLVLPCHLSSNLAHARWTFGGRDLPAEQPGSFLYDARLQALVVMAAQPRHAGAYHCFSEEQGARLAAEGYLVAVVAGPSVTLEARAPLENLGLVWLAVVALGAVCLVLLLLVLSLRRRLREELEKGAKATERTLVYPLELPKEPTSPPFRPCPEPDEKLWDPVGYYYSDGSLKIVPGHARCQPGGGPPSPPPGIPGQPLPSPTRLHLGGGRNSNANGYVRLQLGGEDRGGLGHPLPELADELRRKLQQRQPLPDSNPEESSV
UniProt Q9H299: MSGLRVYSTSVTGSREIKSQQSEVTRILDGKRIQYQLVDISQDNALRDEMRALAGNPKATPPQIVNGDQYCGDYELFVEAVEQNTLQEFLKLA
UniProt P60468, whole entry, looked up: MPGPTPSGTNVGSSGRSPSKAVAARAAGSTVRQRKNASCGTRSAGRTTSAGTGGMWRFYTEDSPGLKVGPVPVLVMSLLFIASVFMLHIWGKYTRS
UniProt Q9UJC5: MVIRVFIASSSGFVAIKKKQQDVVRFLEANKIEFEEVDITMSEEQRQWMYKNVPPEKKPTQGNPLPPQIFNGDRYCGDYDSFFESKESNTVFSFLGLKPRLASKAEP
UniProt Q92599: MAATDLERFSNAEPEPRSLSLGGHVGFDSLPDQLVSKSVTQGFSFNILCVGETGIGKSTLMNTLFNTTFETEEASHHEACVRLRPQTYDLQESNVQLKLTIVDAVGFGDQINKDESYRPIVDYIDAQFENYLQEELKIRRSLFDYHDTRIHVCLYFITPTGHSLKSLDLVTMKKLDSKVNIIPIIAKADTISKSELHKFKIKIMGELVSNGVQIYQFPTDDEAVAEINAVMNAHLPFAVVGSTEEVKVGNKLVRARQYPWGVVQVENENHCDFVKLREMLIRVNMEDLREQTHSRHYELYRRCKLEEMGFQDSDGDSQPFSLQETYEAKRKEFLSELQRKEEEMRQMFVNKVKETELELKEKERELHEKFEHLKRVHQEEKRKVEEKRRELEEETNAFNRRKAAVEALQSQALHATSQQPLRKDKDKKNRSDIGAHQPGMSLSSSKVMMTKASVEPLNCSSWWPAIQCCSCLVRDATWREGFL
UniProt Q9BRV8: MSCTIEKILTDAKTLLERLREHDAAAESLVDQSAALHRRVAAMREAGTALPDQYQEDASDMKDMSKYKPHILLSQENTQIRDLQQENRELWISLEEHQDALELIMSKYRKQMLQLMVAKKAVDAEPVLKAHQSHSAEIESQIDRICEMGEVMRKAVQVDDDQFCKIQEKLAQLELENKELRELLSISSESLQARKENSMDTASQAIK
UniProt P08697: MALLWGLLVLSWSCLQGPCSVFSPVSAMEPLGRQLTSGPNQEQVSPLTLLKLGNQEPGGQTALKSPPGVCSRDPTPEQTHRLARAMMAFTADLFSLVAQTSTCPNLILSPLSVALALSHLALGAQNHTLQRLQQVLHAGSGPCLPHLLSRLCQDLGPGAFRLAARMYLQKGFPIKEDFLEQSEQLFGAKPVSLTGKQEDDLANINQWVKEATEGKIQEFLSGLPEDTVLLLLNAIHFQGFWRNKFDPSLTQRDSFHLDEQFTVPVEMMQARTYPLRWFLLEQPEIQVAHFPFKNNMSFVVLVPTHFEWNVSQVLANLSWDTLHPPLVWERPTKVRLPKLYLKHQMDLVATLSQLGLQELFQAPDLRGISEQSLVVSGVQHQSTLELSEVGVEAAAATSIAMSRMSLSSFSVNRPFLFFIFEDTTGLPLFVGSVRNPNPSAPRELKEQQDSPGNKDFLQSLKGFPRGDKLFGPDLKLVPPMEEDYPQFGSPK
UniProt Q9H173: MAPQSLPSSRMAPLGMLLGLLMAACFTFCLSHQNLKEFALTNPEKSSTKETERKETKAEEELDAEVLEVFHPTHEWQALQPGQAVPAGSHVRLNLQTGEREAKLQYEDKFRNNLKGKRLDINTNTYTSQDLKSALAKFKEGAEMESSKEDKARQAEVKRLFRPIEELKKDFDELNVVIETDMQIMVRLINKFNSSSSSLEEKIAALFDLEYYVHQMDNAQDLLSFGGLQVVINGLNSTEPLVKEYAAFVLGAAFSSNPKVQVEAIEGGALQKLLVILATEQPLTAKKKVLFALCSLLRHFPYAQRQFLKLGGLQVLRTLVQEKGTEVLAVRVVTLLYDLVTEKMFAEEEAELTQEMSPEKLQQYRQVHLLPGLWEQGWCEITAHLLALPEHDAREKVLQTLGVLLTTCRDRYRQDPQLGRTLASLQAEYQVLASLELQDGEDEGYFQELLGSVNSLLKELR
UniProt P36955: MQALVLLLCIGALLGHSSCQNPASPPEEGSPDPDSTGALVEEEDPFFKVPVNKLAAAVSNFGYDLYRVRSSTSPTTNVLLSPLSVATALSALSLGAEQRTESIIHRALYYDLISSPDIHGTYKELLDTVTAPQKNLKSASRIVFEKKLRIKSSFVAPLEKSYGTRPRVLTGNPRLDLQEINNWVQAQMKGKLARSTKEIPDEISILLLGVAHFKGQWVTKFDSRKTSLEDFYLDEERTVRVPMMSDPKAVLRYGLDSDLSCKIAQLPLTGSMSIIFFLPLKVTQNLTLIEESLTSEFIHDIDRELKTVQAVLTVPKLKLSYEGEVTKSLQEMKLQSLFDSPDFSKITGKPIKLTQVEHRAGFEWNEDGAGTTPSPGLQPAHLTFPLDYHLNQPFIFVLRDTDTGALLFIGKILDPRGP
UniProt Q15459: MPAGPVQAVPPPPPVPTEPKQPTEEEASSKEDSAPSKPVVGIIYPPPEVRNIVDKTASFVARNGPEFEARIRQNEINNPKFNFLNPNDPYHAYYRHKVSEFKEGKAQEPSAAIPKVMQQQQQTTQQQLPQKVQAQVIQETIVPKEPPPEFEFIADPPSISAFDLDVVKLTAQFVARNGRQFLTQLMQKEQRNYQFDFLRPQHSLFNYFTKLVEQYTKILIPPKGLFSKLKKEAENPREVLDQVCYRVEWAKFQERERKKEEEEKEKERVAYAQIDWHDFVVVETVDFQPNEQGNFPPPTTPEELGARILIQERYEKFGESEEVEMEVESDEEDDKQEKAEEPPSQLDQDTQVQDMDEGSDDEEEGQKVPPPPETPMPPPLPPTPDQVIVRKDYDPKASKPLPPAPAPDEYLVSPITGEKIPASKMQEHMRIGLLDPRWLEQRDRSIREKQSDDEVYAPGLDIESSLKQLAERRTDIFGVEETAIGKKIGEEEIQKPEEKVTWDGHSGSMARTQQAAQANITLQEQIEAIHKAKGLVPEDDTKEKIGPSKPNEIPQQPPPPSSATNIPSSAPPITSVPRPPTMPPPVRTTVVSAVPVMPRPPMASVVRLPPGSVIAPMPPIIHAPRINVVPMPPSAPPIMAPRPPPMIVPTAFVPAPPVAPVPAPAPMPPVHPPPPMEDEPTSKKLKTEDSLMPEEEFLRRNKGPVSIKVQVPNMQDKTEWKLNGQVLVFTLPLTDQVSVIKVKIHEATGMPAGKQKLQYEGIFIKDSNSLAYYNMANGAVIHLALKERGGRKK

What was measured:
Experiment in all cases: log2 fold change, soluble protein after heating vs DMSO (PISA); higher = thermal stabilisation; K562 cells, 10 uM, 30 min; active = over 0.2 and 3.5 SD of the protein, either way, in both replicates (recomputed)
IRAK-1-4 Inhibitor I = compound: C1COCCN1CCN2C3=CC=CC=C3N=C2NC(=O)C4=CC(=CC=C4)[N+](=O)[O-] [IRAK-1-4 Inhibitor I]
Method in brief: (§1)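 Thermal stability values are relative to control samples and come from duplicates. They are expressed as log2 fold changes. For measurement, K562 cells (2×10^6 cells/mL) received 10 μM compound for 30 min, and aliquots were heated for 3 min over 48°C-58°C, pooled, and extracted at 4°C in PBS with 0.5% NP-40. Soluble protein, the supernatant after 21,000xg for 90 min, was quantified by TMTpro 16plex LC-MS/MS with equalised channel sums.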

ibrutinib = compound: C=CC(=O)N1CCC[C@@H](n2nc(-c3ccc(Oc4ccccc4)cc3)c3c(N)ncnc32)C1 [ibrutinib]
Method in brief: as §1

[1] = compound: CC(=O)c1cnc2ccc(-c3cc(Cl)c(O)c(Cl)c3)nc2c1N[C@H]1CC[C@H](CN(C)C)CC1
Method in brief: as §1

ralimetinib = compound: CC(C)(C)Cn1c(N)nc2ccc(-c3[nH]c(C(C)(C)C)nc3-c3ccc(F)cc3)nc21 [ralimetinib]
Method in brief: as §1

[2] = compound: CC(C)(O)CC(=O)NCCn1ccc2ncnc(Nc3ccc(Oc4cccc(C(F)(F)F)c4)c(Cl)c3)c21
Method in brief: as §1

[3] = compound: CC(C)C1=C2N=C(C=C(N2N=C1)NCC3=CC=CC=C3)NCCCCCCN
Method in brief: as §1

[4] = compound: CC(C)C[C@@H](C=O)NC(=O)[C@H](CC(C)C)NC(=O)[C@H](CC(C)C)NC(=O)OCc1ccccc1
Method in brief: as §1

pinometostat = compound: CC(C)N(C[C@H]1O[C@@H](n2cnc3c(N)ncnc32)[C@H](O)[C@@H]1O)[C@H]1C[C@@H](CCc2nc3cc(C(C)(C)C)ccc3[nH]2)C1 [pinometostat]
Method in brief: as §1

[5] = compound: CC1=C(C(CC(=O)N1)C2=CC=C(C=C2)C(F)(F)F)C(=O)NC3=C(C=C4C(=C3)C=NN4)F
Method in brief: as §1

[6] = compound: CC1=C(C2=C(C=C1)C(=O)C3=CC=CC=C3N2CCCN)C
Method in brief: as §1

Measured: log2 fold change

SERPINB8 (UniProt P50452)
inactive: IRAK-1-4 Inhibitor I 0.057 | ibrutinib 0.014 | [1] 0.038 | ralimetinib -0.098 | [2] -0.023 | [3] 0.042 | [4] -0.041 | pinometostat -0.058 | [5] 0.023 | [6] -0.139

SLAIN2 (UniProt Q9P270)
inactive: IRAK-1-4 Inhibitor I -0.052 | ibrutinib 0.003 | [1] -0.128 | ralimetinib 0.029 | [2] 0.006 | [3] 0.017 | [4] 0.065 | pinometostat -0.012 | [5] 0.069 | [6] -0.006

SF3A2 (UniProt Q15428)
inactive: IRAK-1-4 Inhibitor I -0.067 | ibrutinib -0.055 | [1] -0.014 | ralimetinib 0.005 | [2] 0.038 | [3] 0.044 | [4] -0.065 | pinometostat -0.027 | [5] -0.024 | [6] 0.031

SH3BP5 (UniProt O60239)
inactive: IRAK-1-4 Inhibitor I -0.043 | ibrutinib -0.017 | [1] -0.046 | ralimetinib -0.039 | [2] -0.032 | [3] -0.086 | [4] 0.068 | pinometostat -0.013 | [5] -0.017 | [6] -0.083

SEL1L (UniProt Q9UBV2)
inactive: IRAK-1-4 Inhibitor I -0.032 | ibrutinib -0.111 | [1] 0 | ralimetinib 0.006 | [2] -0.025 | [3] -0.074 | [4] 0.019 | pinometostat -0.012 | [5] -0.006 | [6] -0.035

SELENOF (UniProt O60613)
inactive: IRAK-1-4 Inhibitor I 0.012 | ibrutinib -0.075 | [1] 0.016 | ralimetinib 0.023 | [2] 0.012 | [3] -0.026 | [4] 0.008 | pinometostat 0.006 | [5] -0.017 | [6] 0.134

SIRT6 (UniProt Q8N6T7)
inactive: IRAK-1-4 Inhibitor I -0.053 | ibrutinib 0.019 | [1] -0.153 | ralimetinib 0.058 | [2] 0.096 | [3] 0.015 | [4] 0.088 | pinometostat -0.045 | [5] 0.075 | [6] 0.234

SEPTIN6 (UniProt Q14141)
inactive: IRAK-1-4 Inhibitor I 0.047 | ibrutinib 0.02 | [1] -0.031 | ralimetinib -0.082 | [2] 0.041 | [3] 0.052 | [4] 0.014 | pinometostat -0.018 | [5] 0.014 | [6] 0.024

SF3B4 (UniProt Q15427)
inactive: IRAK-1-4 Inhibitor I -0.016 | ibrutinib -0.049 | [1] -0.083 | ralimetinib 0.074 | [2] 0.062 | [3] 0.092 | [4] 0.014 | pinometostat 0.098 | [5] -0.009 | [6] 0.011

SFPQ (UniProt P23246)
inactive: IRAK-1-4 Inhibitor I -0.107 | ibrutinib 0.031 | [1] -0.001 | ralimetinib 0.108 | [2] 0.038 | [3] -0.08 | [4] 0.083 | pinometostat 0.115 | [5] -0.012 | [6] 0.065

SEPHS2 (UniProt Q99611)
inactive: IRAK-1-4 Inhibitor I 0.016 | ibrutinib 0.003 | [1] -0.054 | ralimetinib 0.03 | [2] -0.012 | [3] 0.055 | [4] -0.054 | pinometostat -0.016 | [5] 0.02 | [6] -0.01

2 successive records already listed:
SIRT6 (UniProt Q8N6T7)
inactive: IRAK-1-4 Inhibitor I -0.053 | ibrutinib 0.019 | [1] -0.153 | ralimetinib 0.058 | [2] 0.096 | [3] 0.015 | [4] 0.088 | pinometostat -0.045 | [5] 0.075 | [6] 0.234

SEPTIN6 (UniProt Q14141)
inactive: IRAK-1-4 Inhibitor I 0.047 | ibrutinib 0.02 | [1] -0.031 | ralimetinib -0.082 | [2] 0.041 | [3] 0.052 | [4] 0.014 | pinometostat -0.018 | [5] 0.014 | [6] 0.024

Remaining list, next part.

SH3BP1 (UniProt Q9Y3L3)
inactive: IRAK-1-4 Inhibitor I 0.027 | ibrutinib 0.021 | [1] -0.071 | ralimetinib 0.004 | [2] -0.019 | [3] -0.025 | [4] 0.019 | pinometostat -0.016 | [5] -0.02 | [6] 0.029

SF3B3 (UniProt Q15393)
inactive: IRAK-1-4 Inhibitor I 0.021 | ibrutinib 0.013 | [1] -0.025 | ralimetinib -0.033 | [2] -0.009 | [3] 0.075 | [4] 0.017 | pinometostat 0.006 | [5] -0.039 | [6] 0.074

SHTN1 isoform 3 (UniProt A0MZ66)
inactive: IRAK-1-4 Inhibitor I -0.069 | ibrutinib -0.042 | [1] 0.041 | ralimetinib 0.111 | [2] -0.032 | [3] -0.063 | [4] 0.034 | pinometostat 0.034 | [5] -0.015 | [6] -0.021

SEMA4C (UniProt Q9C0C4)
inactive: IRAK-1-4 Inhibitor I 0.037 | ibrutinib 0.006 | [1] -0.089 | ralimetinib 0.025 | [2] -0.012 | [3] -0.001 | [4] 0.077 | pinometostat 0.038 | [5] 0.047 | [6] -0.021

SH3BGRL3 (UniProt Q9H299)
inactive: IRAK-1-4 Inhibitor I 0.05 | ibrutinib -0.006 | [1] 0.006 | ralimetinib 0.043 | [2] -0.006 | [3] 0.028 | [4] 0.041 | pinometostat 0.002 | [5] -0.019 | [6] 0.058

SEC61B (UniProt P60468)
inactive: IRAK-1-4 Inhibitor I 0.013 | ibrutinib 0 | [1] 0.031 | ralimetinib -0.132 | [2] 0.069 | [3] 0.001 | [4] -0.039 | pinometostat -0.051 | [5] 0 | [6] -0.06

SH3BGRL2 (UniProt Q9UJC5)
inactive: IRAK-1-4 Inhibitor I 0.049 | ibrutinib 0.075 | [1] -0.008 | ralimetinib -0.071 | [2] -0.021 | [3] 0.012 | [4] 0.079 | pinometostat -0.007 | [5] -0.058 | [6] 0.002

SEPTIN8 (UniProt Q92599)
inactive: IRAK-1-4 Inhibitor I 0.039 | ibrutinib 0.003 | [1] -0.034 | ralimetinib -0.066 | [2] -0.007 | [3] 0.034 | [4] 0 | pinometostat -0.025 | [5] -0.004 | [6] -0.007

SH3GLB1 isoform 2 (UniProt Q9Y371)
inactive: IRAK-1-4 Inhibitor I -0.057 | ibrutinib -0.003 | [1] -0.103 | ralimetinib 0.009 | [2] -0.059 | [3] -0.167 | [4] 0.083 | pinometostat 0.09 | [5] 0.023 | [6] -0.111

SIN3A (UniProt Q96ST3)
inactive: IRAK-1-4 Inhibitor I -0.041 | ibrutinib -0.154 | [1] 0.024 | ralimetinib 0.09 | [2] -0.113 | [3] -0.152 | [4] 0.069 | pinometostat 0.177 | [5] 0.101 | [6] -0.092

SIKE1 (UniProt Q9BRV8)
inactive: IRAK-1-4 Inhibitor I -0.033 | ibrutinib 0.017 | [1] 0.044 | ralimetinib 0.005 | [2] 0.005 | [3] 0.034 | [4] 0.081 | pinometostat 0.028 | [5] 0.067 | [6] -0.005

SELENBP1 isoform 4 (UniProt Q13228)
inactive: IRAK-1-4 Inhibitor I 0.005 | ibrutinib 0.013 | [1] 0.01 | ralimetinib -0.004 | [2] -0.01 | [3] 0.056 | [4] -0.02 | pinometostat -0.06 | [5] -0.018 | [6] -0.015

SERPINF2 (UniProt P08697)
inactive: IRAK-1-4 Inhibitor I 0.082 | ibrutinib 0.208 | [1] 0.077 | ralimetinib -0.021 | [2] 0.118 | [3] 0.1 | [4] 0.155 | pinometostat -0.107 | [5] 0.062 | [6] -0.129

SIL1 (UniProt Q9H173)
inactive: IRAK-1-4 Inhibitor I -0.06 | ibrutinib -0.095 | [1] -0.008 | ralimetinib 0.038 | [2] -0.064 | [3] -0.026 | [4] -0.049 | pinometostat 0.079 | [5] 0.054 | [6] 0.017

SERGEF (UniProt Q9UGK8)
inactive: IRAK-1-4 Inhibitor I 0.037 | ibrutinib -0.032 | [1] 0.009 | ralimetinib -0.139 | [2] -0.094 | [3] -0.065 | [4] 0.187 | pinometostat 0.059 | [5] 0.01 | [6] 0.101

SF3A3 (UniProt Q12874)
inactive: IRAK-1-4 Inhibitor I -0.079 | ibrutinib -0.1 | [1] 0.007 | ralimetinib 0.018 | [2] -0.013 | [3] 0.067 | [4] 0.081 | pinometostat 0.003 | [5] -0.066 | [6] -0.006

SERPINF1 (UniProt P36955)
inactive: IRAK-1-4 Inhibitor I 0.003 | ibrutinib 0.212 | [1] 0.052 | ralimetinib 0.022 | [2] 0.122 | [3] 0.229 | [4] -0.051 | pinometostat -0.02 | [5] 0.003 | [6] -0.131

SF3A1 (UniProt Q15459)
inactive: IRAK-1-4 Inhibitor I -0.018 | ibrutinib 0.004 | [1] 0.033 | ralimetinib 0.046 | [2] -0.02 | [3] 0.082 | [4] -0.018 | pinometostat -0.001 | [5] 0.011 | [6] 0.002
